# Out of some 340,000 compounds screened, about 6,200 (1.8%) were called active. Inconclusive means that the source gave no clear call. Such entries were picked first, then a sample of the others. Calls follow the shape of the dose curve; as a rule, active = well fitted activation curve with a large enough effect; inconclusive = small, poorly fitted or top-dose-only effect; inactive = no such curve, though single readings can be large or run the other way. A potency beside an inconclusive call is a rough fit, not a confirmed value.
# Test: A quantitative high throughput screen for small molecules that induce DNA re-replication in SW480 colon adenocarcinoma cells. Also: nearly all actives have a fitted effect of over 55% in size. As to re-replication activation: % of control where 0% means no effect.
# Conditions: Hoechst DNA content imaging, 48 h; re-replication activation: at 46.1 µM (top of the series)
# Summary of the method: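 Treated cells incubate 48 hr (37 C, 5% CO2), are stained 40 min with Hoechst, and nuclear fluorescence is enumerated; a rise in nuclei with high DNA signal marks re-replication.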
# Potency is read from the fitted curve at half-maximal effect.
Compound,Potency,re-replication activation
Cc1ccc(N2C(=O)C3C4C=CC(CNC(=S)N5CCN(c6cccc(C)c6)C(C)C5)(O4)C3C2=O)cc1 (stereo not given),active: 10.3 µM,
CC(NCc1cccs1)C(=O)NC1CCCCC1 (stereo not given),"inconclusive: 29.1 µM [activator, single point]",
COc1ccc(OC)c(/C=N/NC(=O)c2ccc(Cn3cc([N+](=O)[O-])cn3)o2)c1,"inconclusive: 0.058 µM [activator, single point]",
CC1=C(C(=O)c2ccccc2)C(c2ccc(OC(F)F)cc2)NC(=S)N1 (stereo not given),"inconclusive: 25.9 µM [activator, single point]",
Cc1cc(C)c(S(=O)(=O)N2CCCC(C(=O)NCc3cccnc3)C2)c(C)c1 (stereo not given),inactive,
CC1(C)Cc2c(cnn2-c2ccc(F)cc2)C(NC(=O)C2=NNC(=O)CC2)C1 (stereo not given),"inconclusive: 29.1 µM [activator, single point]",
Cc1ccc(Cl)cc1Nc1nc(-c2cccnc2)cs1,inactive,
C=CCN1C(=O)/C(=C2/Sc3ccccc3N2CC)SC1=S,"inconclusive: 29.1 µM [activator, partial curve, poor fit]",
COc1ccccc1-c1cn(-c2ccccc2)c(=S)[nH]1,"inconclusive: 3.66 µM [activator, partial curve, poor fit]",
CCOc1cc(/C=C2\CN(C)C/C(=C\c3ccc(O)c(OCC)c3)C2=O)ccc1O,active: 1.64 µM,
O=C(c1ccc(F)cc1)c1cnc(Nc2ccccc2)s1,"inconclusive: 4.11 µM [activator, partial curve, poor fit]",
CCOc1ccc(NC(=O)CN(C)C(=O)C2=COCCO2)cc1OCC,"inconclusive: 9.2 µM [activator, single point]",
CCOC(=O)N1CCC(NC(=O)C2CCCN(Cc3nc(-c4ccc(CC)cc4)oc3C)C2)CC1 (stereo not given),"inconclusive: 29.1 µM [activator, single point]",
Cc1nn(-c2ccccn2)c2c1C(c1ccsc1)C1=C(CCCC1=O)N2 (stereo not given),"inconclusive: 0.731 µM [activator, full curve, poor fit]",
CCOC(=O)C1CCN(c2ncnc3cc(OC)c(OC)cc23)CC1,inactive,
CCCN1C/C(=C/c2cccc([N+](=O)[O-])c2)C(=O)/C(=C/c2cccc([N+](=O)[O-])c2)C1,active: 1.64 µM,
COc1ccc(NC(=O)CN(C)C(=O)c2ccccc2CCc2ccccc2)cc1,inactive,
CC1(C)N=C(N)N=C(N)N1c1cccc(C#N)c1,"inconclusive: 2.06 µM [activator, full curve, poor fit]",
COc1ccc(C2CC(c3ccccc3)=NN2c2ccc(N)cc2)cc1 (stereo not given),active: 23.1 µM,
COc1ccc(NC(=O)CN(C)C(=O)CNC(=O)c2cccs2)cc1,inactive,
CCN(C(=O)COC(=O)/C=C/c1c(C)nn(Cc2ccc(C)cc2)c1C)C1CCS(=O)(=O)C1 (stereo not given),active: 16.4 µM,
Cc1cccc(C(=O)Nc2ccc(C(=O)c3ccccc3)cc2)c1,"inconclusive: 29.1 µM [activator, single point]",
O=C1C2C3C=CC(CC3)C2C(=O)N1c1ccc(Cl)cc1Cl (stereo not given),inactive,
C=CCN=C(NC#N)SCC(=O)c1cccc(OC)c1,"inconclusive: 14.6 µM [activator, partial curve]",

# Single records, as listed above:
# `COc1ccccc1-c1cn(-c2ccccc2)c(=S)[nH]1` in the list: Potency: inconclusive: 3.66 µM [activator, partial curve, poor fit]
# `Cc1nn(-c2ccccn2)c2c1C(c1ccsc1)C1=C(CCCC1=O)N2` (stereo not given) in the list: Potency: inconclusive: 0.731 µM [activator, full curve, poor fit]
# `O=C(c1ccc(F)cc1)c1cnc(Nc2ccccc2)s1` in the list: Potency: inconclusive: 4.11 µM [activator, partial curve, poor fit]
# `CCOC(=O)N1CCC(NC(=O)C2CCCN(Cc3nc(-c4ccc(CC)cc4)oc3C)C2)CC1` (stereo not given) in the list: Potency: inconclusive: 29.1 µM [activator, single point]

# The list goes on.

Compound,Potency,re-replication activation
Brc1ccc(-c2nnc3n2-c2ccccc2CC3)cc1,"inconclusive: 29.1 µM [activator, single point]",
Cc1c(C)n(C)c2ccc(C(=O)NCCCN3CCN(c4ccccc4F)CC3)cc12,"inconclusive: 29.1 µM [activator, single point]",
COc1ccc(OCCCC(=O)Nc2cc(S(=O)(=O)N3CCCCC3)ccc2OC)cc1,"inconclusive: 0.366 µM [activator, full curve]",
Nc1ncc(-c2ccccc2)n1CC1CCCO1 (stereo not given),"inconclusive: 20.6 µM [activator, single point]",
Cc1ccc(C(=O)c2coc3ccc(O)c(CN(C)C)c23)cc1,"inconclusive: 16.4 µM [activator, partial curve, poor fit]",
CCn1c(=O)c(=O)[nH]c2cc(C(=O)NC3CCCC3)ccc21,"inconclusive: 0.731 µM [activator, partial curve, poor fit]",
C=C1C(=O)C23CCC4C(C)(C(=O)OC)CCCC4(C)C2CCC1(O)C3 (stereo not given),active: 1.16 µM,
Cc1cccnc1Nc1nc(-c2ccccn2)cs1,"inconclusive: 14.6 µM [activator, partial curve, poor fit]",
COc1ccc(C(=O)C(C)OC(=O)c2cccc(S(=O)(=O)Nc3c(C)n(C)n(-c4ccccc4)c3=O)c2)cc1 (stereo not given),"inconclusive: 29.1 µM [activator, partial curve, poor fit]",
C/C(=N/NC(=O)c1cc(-c2cccc([N+](=O)[O-])c2)n[nH]1)c1cccc(O)c1,"inconclusive: 9.2 µM [activator, single point]",
Cc1ccc(S(=O)(=O)N2CCC(C(=O)NNC(=O)c3ccccc3O)CC2)cc1,"inconclusive: 20.6 µM [activator, single point]",
CN(C)c1ccc(C(=O)c2ccccc2C(=O)O)cc1[N+](=O)[O-],inactive,
COc1ccc(Nc2cc(C(=O)NCCCN3CCOCC3)c3ccccc3n2)cc1OC,inactive,
COc1cc(/C=N/NC(=O)c2cc(-c3cccc(OC(C)C)c3)nc3ccccc23)ccc1O,"inconclusive: 29.1 µM [activator, single point]",
CC1CCCCC1NC(=O)/C(C#N)=C/c1ccc(F)c(F)c1 (stereo not given),"inconclusive: 6.51 µM [activator, partial curve, poor fit]",
Cc1ccc(CC(=O)Nc2ccccc2N2CCOCC2)cc1C,inactive,
CC(C)(C)NC(=O)CN1CCCN(C(=O)c2cccc(S(=O)(=O)N3CCc4ccccc43)c2)CC1,inactive,
COc1ccc(OCc2cc(C(=O)NC(C)c3csc(C)n3)no2)c(Cl)c1 (stereo not given),inactive,
Cc1ccc(N(Cc2cc3ccccc3[nH]c2=O)C(=O)c2cccs2)cc1C,"inconclusive: 18.4 µM [activator, single point]",
COc1ccc(CN2CCN(Cc3c[nH]c4ccccc34)CC2CCO)cc1C (stereo not given),"inconclusive: 29.1 µM [activator, single point]",
CC1Sc2ccc(S(=O)(=O)N3CCC(C(=O)Nc4cccc(Cl)c4)CC3)cc2NC1=O (stereo not given),"inconclusive: 29.1 µM [activator, single point]",
COc1cccc(CN(C)C(=O)c2cc(S(=O)(=O)N3CCCCCC3)ccc2OC)c1,"inconclusive: 10.3 µM [activator, partial curve, poor fit]",
Cc1ccc2cc(CN(CC3CCCO3)C(=S)Nc3ccccc3)c(=O)[nH]c2c1C (stereo not given),active: 5.17 µM,
O=C(CSc1nnc(C2CCCCC2)o1)N1CCCCC1,"inconclusive: 5.8 µM [activator, partial curve, poor fit]",

Compound,Potency,re-replication activation
O=C(O)[C@H]1Cc2ccccc2CN1S(=O)(=O)c1ccc(F)cc1,"inconclusive: 18.4 µM [activator, single point]",
CCCCOCCCNc1ncnc2c1[nH]c1ccccc12,"inconclusive: 25.9 µM [activator, single point]",
O=C(CCS(=O)(=O)c1ccccc1)N1CCN(c2ccccc2)CC1,"inconclusive: 29.1 µM [activator, single point]",
COc1ccc(C)cc1Nc1c2c(nc3ccccc13)CCC2,active: 2.91 µM,
CCCN(CCC)C(=O)C1CCN(c2ccc(S(=O)(=O)N3CCOCC3)cc2[N+](=O)[O-])CC1,inactive,
CN(C)c1ccc(-c2cc(O)c3ncccc3c2)cc1,"inconclusive: 1.3 µM [activator, full curve]",
OCc1cn(-c2ccccc2)nc1-c1ccc2c(c1)OCCO2,,inactive: 10.9% [at 9.22 µM]
COc1cc([N+](=O)[O-])ccc1NC(=O)Cc1ccccc1,"inconclusive: 32.6 µM [activator, partial curve, poor fit]",
COc1ccc(N2CCN(C(CNC(=O)C(C)C)c3ccc4c(c3)OCO4)CC2)cc1 (stereo not given),inactive,
CC(=O)c1ccc(C(=O)Nc2nnc(-c3ccc(Cl)cc3)o2)cc1,"inconclusive: 20.6 µM [activator, single point]",
CN1CCN(c2nc(-c3ccc(Cl)s3)cs2)CC1,"inconclusive: 2.91 µM [activator, partial curve, poor fit]",
O=C(c1ccc(-c2cccc(C(F)(F)F)c2)o1)N1CCCCCCC1,inactive,
CCCCOCCCNC1=NCCCCC1,inactive,
C=CCN(C(=O)COc1ccccc1)c1nnc(-c2ccncc2)s1,inactive,
Cc1cc(OCCCCCN2CCCC2)ccc1Cl,"inconclusive: 16.4 µM [activator, single point]",
Cc1c(C(=O)NCCCN2CCOCC2)oc2c1C1(CCC2)SCCS1,"inconclusive: 32.6 µM [activator, partial curve, poor fit]",
O=C(/C=C/c1ccco1)N1CCCC(c2ccccc2)C1 (stereo not given),"inconclusive: 29.1 µM [activator, single point]",
Cc1ccccc1NC(=S)NC(C)CCc1ccccc1 (stereo not given),inactive,
S=c1[nH]nc(COc2ccc3ccccc3c2)o1,inactive,
CCn1c(=O)c(C(=O)NCc2ccccc2Cl)c(O)c2ccccc21,inactive,
CCc1nnc(N/N=C/c2ccc(O)c(OC)c2)n1N,"inconclusive: 0.116 µM [activator, full curve, poor fit]",
COc1ccc(/C=C/C(=O)c2c(O)c(OC)c3occc3c2OC)cc1,"inconclusive: 5.17 µM [activator, single point]",

# From PubChem BioAssay AID624297 (National Center for Advancing Translational Sciences (NCATS), 2012)
